{"source": "PubChem BioAssay AID652259 (Drosophila RNAi Screening Center, 2013)", "assay": "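Genome-wide hunt for genes that control Wingless pathway activity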 (primary screen)", "cells": "Drosophila clone 8 imaginal disc epithelial cells", "reagent": "long dsRNA against Drosophila genes", "conditions": "pathway stimulated by co-transfected Wingless expression plasmid", "measured": "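Dual luciferase reads per well after Wingless plasmid stimulation: reporter firefly light and Renilla control light; activity is firefly divided by Renilla, a ratio not deposited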", "direction": "firefly reporter light: higher = more Wg reporter light, before normalisation; Renilla control light: higher = more transfected or surviving cells", "hit rule": "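a knock-down is a candidate when at least two out of four statistical tests show it departing from its plate mean; one test alone signals a weak candidate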", "calls": "active = candidate regulator (raises or lowers reporter); inactive = not a candidate", "note": "The deposit covers about 22,000 reagents; shown is a random part of those with a known target gene and a result. Over the whole deposit, 233 (1.1%) are marked active. 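Light values are raw, unnormalised plate reads; the ratio scores behind the reporter calls were not deposited.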 Unmarked entries are inactive. No sequences are given here. Not given: the amount of reagent, the time to read-out, the dose of the treatment."}
{"target": "CG11404", "dsRNA": "DRSC11656", "firefly reporter light, replicate 1": 17492, "Renilla control light, replicate 1": 5936}
{"target": "rec", "dsRNA": "DRSC14998", "firefly reporter light, replicate 1": 12194, "Renilla control light, replicate 1": 2569}
{"target": "rec", "dsRNA": "DRSC15656", "firefly reporter light, replicate 1": 14316, "Renilla control light, replicate 1": 3394}
{"target": "stj", "dsRNA": "DRSC06124", "firefly reporter light, replicate 1": 12667, "Renilla control light, replicate 1": 2672}
{"target": "Gapdh1", "dsRNA": "DRSC07433", "firefly reporter light, replicate 1": 2496, "firefly reporter light, replicate 2": 5861, "Renilla control light, replicate 1": 163, "Renilla control light, replicate 2": 2610}
{"target": "eco", "dsRNA": "DRSC11006", "firefly reporter light, replicate 1": 4777, "Renilla control light, replicate 1": 1939}
{"target": "wor", "dsRNA": "DRSC03637", "firefly reporter light, replicate 1": 3404, "firefly reporter light, replicate 2": 4866, "Renilla control light, replicate 1": 1043, "Renilla control light, replicate 2": 2864}
{"target": "Cyp6t3", "dsRNA": "DRSC07388", "firefly reporter light, replicate 1": 5559, "Renilla control light, replicate 1": 2076}
{"target": "dachs", "dsRNA": "DRSC01026", "firefly reporter light, replicate 1": 25192, "firefly reporter light, replicate 2": 7.50e5, "Renilla control light, replicate 1": 10577, "Renilla control light, replicate 2": 3.11e5}
{"target": "dachs", "dsRNA": "DRSC02072", "firefly reporter light, replicate 1": 8592, "Renilla control light, replicate 1": 3878}
{"target": "dachs", "dsRNA": "DRSC02191", "firefly reporter light, replicate 1": 2403, "firefly reporter light, replicate 2": 5798, "Renilla control light, replicate 1": 887, "Renilla control light, replicate 2": 3072}
{"target": "mEFTu2", "dsRNA": "DRSC06163", "firefly reporter light, replicate 1": 13573, "Renilla control light, replicate 1": 3813}
{"target": "Fhos", "dsRNA": "DRSC08943", "firefly reporter light, replicate 1": 2598, "Renilla control light, replicate 1": 1356}
{"target": "Fhos", "dsRNA": "DRSC10545", "firefly reporter light, replicate 1": 5938, "Renilla control light, replicate 1": 2745}
{"target": "Fhos", "dsRNA": "DRSC10546", "firefly reporter light, replicate 1": 5953, "Renilla control light, replicate 1": 2826}
{"target": "Fhos", "dsRNA": "DRSC10547", "firefly reporter light, replicate 1": 1986, "firefly reporter light, replicate 2": 10291, "Renilla control light, replicate 1": 1360, "Renilla control light, replicate 2": 4324}
{"target": "hfp", "dsRNA": "DRSC08731", "firefly reporter light, replicate 1": 7264, "Renilla control light, replicate 1": 2806}
{"target": "hfp", "dsRNA": "DRSC08732", "firefly reporter light, replicate 1": 6067, "Renilla control light, replicate 1": 3034}
{"target": "hfp", "dsRNA": "DRSC22408", "firefly reporter light, replicate 1": 7.57e5, "firefly reporter light, replicate 2": 7.76e5, "Renilla control light, replicate 1": 2.99e5, "Renilla control light, replicate 2": 2.58e5}
{"target": "Cyp28d2", "dsRNA": "DRSC03299", "firefly reporter light, replicate 1": 3572, "firefly reporter light, replicate 2": 6170, "Renilla control light, replicate 1": 1137, "Renilla control light, replicate 2": 1968}
{"target": "sdt", "dsRNA": "DRSC17555", "firefly reporter light, replicate 1": 2711, "Renilla control light, replicate 1": 647}
{"target": "sdt", "dsRNA": "DRSC17556", "firefly reporter light, replicate 1": 3145, "Renilla control light, replicate 1": 1286}
{"target": "sdt", "dsRNA": "DRSC17860", "firefly reporter light, replicate 1": 16819, "Renilla control light, replicate 1": 7857}
{"target": "sdt", "dsRNA": "DRSC17861", "firefly reporter light, replicate 1": 21945, "Renilla control light, replicate 1": 9450}
{"target": "sdt", "dsRNA": "DRSC18022", "firefly reporter light, replicate 1": 19709, "Renilla control light, replicate 1": 9413}
{"target": "sdt", "dsRNA": "DRSC18025", "firefly reporter light, replicate 1": 15770, "Renilla control light, replicate 1": 4688}
{"target": "sdt", "dsRNA": "DRSC18026", "firefly reporter light, replicate 1": 12336, "Renilla control light, replicate 1": 2252}
{"target": "sdt", "dsRNA": "DRSC18027", "firefly reporter light, replicate 1": 20903, "Renilla control light, replicate 1": 6789}
{"target": "sdt", "dsRNA": "DRSC18108", "firefly reporter light, replicate 1": 24328, "Renilla control light, replicate 1": 11408}
{"target": "Cyp310a1", "dsRNA": "DRSC03301", "firefly reporter light, replicate 1": 9024, "Renilla control light, replicate 1": 3340}
{"target": "CG13385", "dsRNA": "DRSC02259", "firefly reporter light, replicate 1": 2460, "firefly reporter light, replicate 2": 6485, "Renilla control light, replicate 1": 754, "Renilla control light, replicate 2": 3792}
{"target": "CG12259", "dsRNA": "DRSC14486", "firefly reporter light, replicate 1": 2826, "Renilla control light, replicate 1": 1651}

Sorted by “firefly reporter light, replicate 1” (low to high): 2 of the entries above
{"target": "sdt", "dsRNA": "DRSC17555", "firefly reporter light, replicate 1": 2711, "Renilla control light, replicate 1": 647}
{"target": "sdt", "dsRNA": "DRSC17556", "firefly reporter light, replicate 1": 3145, "Renilla control light, replicate 1": 1286}
